The results in this text go back to publication PMC4745749.

The chains behind the UniProt entries cited, without tags or fusion partners.
UniProt Q00987: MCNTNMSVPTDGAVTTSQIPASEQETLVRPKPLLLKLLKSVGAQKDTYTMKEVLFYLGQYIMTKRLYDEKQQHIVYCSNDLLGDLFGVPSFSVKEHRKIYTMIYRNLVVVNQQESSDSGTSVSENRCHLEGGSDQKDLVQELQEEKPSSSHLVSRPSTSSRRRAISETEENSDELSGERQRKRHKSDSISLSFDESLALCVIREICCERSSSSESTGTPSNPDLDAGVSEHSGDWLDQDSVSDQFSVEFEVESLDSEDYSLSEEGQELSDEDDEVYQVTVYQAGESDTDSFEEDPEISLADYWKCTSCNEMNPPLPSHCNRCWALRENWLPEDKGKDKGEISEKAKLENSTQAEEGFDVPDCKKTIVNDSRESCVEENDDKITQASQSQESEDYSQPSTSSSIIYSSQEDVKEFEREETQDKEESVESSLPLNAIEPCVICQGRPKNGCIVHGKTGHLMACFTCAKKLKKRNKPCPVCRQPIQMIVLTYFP
UniProt Q9Y294: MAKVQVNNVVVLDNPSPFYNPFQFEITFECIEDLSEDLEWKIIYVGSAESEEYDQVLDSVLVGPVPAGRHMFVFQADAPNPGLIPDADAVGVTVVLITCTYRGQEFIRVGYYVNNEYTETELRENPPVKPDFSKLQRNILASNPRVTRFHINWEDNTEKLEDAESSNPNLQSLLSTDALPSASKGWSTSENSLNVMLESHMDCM

Assay [1] addresses MDM2 (human (endogenous in HL-7702)) (UniProt Q00987). Description: co-IP; endogenous co-IP from HL-7702 lysate with an anti-MDM2 antibody; blots with anti-ASF1A or anti-RAD6.
The target is the same in assay [2]. Description: co-IP; two-step co-IP from HL-7702 cells transfected with Myc-RAD6A and Myc-RAD6B: first IP anti-Myc, elution with Myc peptide (250 mM NaCl), second IP anti-MDM2 or control IgG; blots with anti-Myc, anti-MDM2, anti-ASF1A.

No constants are given. Whether binding was seen depends on the method and setting. In cells and extracts the contact can be indirect. Some results given as binding are weak or reduced against the parent protein; the word gives no strength.

Turning to “ASF1A (anti-silencing function 1A) (from UniProt Q9Y294 1-204)”, the binding entry in assay [1] and in assay [2] was “binds” in each case.
